Binding data for one substance are collected here from publication PMC7645679.

Amino acid sequences for entries named in this document (tags omitted). A change or cut given only in a name is not applied to a line headed by its entry.
UniProt Q6A026: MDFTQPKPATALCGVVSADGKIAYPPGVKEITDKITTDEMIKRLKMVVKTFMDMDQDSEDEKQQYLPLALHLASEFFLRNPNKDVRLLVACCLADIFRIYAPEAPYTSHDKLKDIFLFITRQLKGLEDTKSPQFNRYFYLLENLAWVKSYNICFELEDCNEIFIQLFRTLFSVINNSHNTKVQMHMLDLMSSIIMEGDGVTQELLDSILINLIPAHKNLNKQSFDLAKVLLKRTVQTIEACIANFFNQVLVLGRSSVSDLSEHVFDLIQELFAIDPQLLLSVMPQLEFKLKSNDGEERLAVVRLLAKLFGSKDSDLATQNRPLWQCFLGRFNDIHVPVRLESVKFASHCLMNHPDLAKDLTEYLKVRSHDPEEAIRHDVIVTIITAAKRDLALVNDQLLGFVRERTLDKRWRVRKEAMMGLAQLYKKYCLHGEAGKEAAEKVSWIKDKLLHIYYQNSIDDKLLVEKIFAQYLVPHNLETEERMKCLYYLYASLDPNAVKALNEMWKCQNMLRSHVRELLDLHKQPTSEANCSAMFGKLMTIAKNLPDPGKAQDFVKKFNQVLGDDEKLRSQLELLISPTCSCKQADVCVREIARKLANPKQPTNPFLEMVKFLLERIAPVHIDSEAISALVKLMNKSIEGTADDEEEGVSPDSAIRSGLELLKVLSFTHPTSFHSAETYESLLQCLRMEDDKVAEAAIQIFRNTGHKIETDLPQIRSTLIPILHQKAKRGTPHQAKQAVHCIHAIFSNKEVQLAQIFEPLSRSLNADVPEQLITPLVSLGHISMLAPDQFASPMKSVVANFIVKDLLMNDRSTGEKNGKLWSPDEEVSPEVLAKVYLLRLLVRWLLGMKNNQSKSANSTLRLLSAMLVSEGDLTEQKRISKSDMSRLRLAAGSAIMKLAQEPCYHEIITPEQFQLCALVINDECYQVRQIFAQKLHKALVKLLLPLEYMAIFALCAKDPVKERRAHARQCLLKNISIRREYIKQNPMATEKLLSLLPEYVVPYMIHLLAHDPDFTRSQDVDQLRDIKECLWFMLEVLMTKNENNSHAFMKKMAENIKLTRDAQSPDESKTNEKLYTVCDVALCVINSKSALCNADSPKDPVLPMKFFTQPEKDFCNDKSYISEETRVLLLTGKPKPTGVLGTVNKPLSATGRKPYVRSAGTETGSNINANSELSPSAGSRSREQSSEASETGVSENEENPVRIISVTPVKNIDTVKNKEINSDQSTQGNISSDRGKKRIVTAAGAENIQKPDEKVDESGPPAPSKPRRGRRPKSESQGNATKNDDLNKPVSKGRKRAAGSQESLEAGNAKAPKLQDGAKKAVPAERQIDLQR

No constants are given. Whether binding was seen depends on the method and setting. Tags and fused reporters may be left off the sequences shown.

For this experiment, the target named is T1, CTCF (mouse), GFP fusion tethered to the LacO array in the fluorescent three-hybrid assay (mouse) (UniProt Q61164).
T1 sequence: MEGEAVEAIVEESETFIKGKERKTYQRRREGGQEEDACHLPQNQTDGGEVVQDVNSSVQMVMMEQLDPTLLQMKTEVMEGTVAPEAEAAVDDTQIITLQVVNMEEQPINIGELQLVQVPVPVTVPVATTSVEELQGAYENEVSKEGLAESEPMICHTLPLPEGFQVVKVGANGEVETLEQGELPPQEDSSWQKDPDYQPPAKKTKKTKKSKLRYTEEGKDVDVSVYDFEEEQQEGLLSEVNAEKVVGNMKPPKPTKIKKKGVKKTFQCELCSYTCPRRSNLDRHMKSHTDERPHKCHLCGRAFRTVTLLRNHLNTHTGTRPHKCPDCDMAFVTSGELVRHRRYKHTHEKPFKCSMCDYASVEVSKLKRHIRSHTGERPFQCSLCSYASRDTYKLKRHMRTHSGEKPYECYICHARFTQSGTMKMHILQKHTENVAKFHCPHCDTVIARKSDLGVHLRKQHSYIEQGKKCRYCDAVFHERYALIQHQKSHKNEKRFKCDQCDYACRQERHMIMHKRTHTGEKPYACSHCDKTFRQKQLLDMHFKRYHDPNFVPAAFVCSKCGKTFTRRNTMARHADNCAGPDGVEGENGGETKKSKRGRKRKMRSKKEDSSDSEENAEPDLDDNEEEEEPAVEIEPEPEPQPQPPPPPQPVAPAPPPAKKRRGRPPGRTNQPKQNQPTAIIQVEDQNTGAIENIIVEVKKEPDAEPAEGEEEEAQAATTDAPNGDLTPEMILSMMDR
Kind of experiment: fluorescent three-hybrid (F3H); GFP-tagged bait tethered to a LacO array by GFP nanobody–LacR in BHK-LacO cells; recruitment of mKate2-tagged prey read as Pearson correlation of green and red channels at the array; cells fixed 24 h after transfection.

“PDS5A with alanine substitution of the APEAP motif, mKate2 fusion (from UniProt Q6A026)”: the binding result is “no binding”.
